Results reported in patent US20260043031A1, “COMPOSITIONS AND METHODS FOR INHIBITING ADENYLATE CYCLASE 9 (AC9)” (INSTITUT DE CARDIOLOGIE DE MONTRÉAL, priority 2022, published 2026).

Tested on: HepG2 cells
Experiment: 3H-CE-LDL cell association assay
Format: cell-based, human
Details: HepG2, siAC9 plus 5 μM atorvastatin 24 h before assay
Experimental: HepG2 (hepatocellular carcinoma) cells were growth in Eagle's minimum essential medium (EMEM). The medium was supplemented with 10% FBS, 100 units/ml penicillin, and 100 μg/ml streptomycin. Cells were cultured in 5% CO2 at 37° C. and were harvested once a week with trypsin-EDTA. For experiments, cells were trypsinized, seeded, and cultured at least for 3 days prior to the assays.
HepG2 cells were transfected with ADCY9, SREBP2, LDLr or scramble siRNA in the presence of Lipofectamine RNAiMAX in Opti-MEM for 72 h unless otherwise stated.
Lipoproteins were isolated from human plasma obtained from BioIVT (Westbury, NY). Before the isolation, the plasma was adjusted to 0.01% ethylenediamine tetraacetate (EDTA), 0.02% sodium azide, and 10 μM phenylmethylsulfonyl fluoride (PMSF). Human LDL (d=1.025-1.063 g/ml) was prepared by ultracentrifugation as described by Brissette et al. (doi: 10.1042/bj3180841). […]
Cell association of [^3H]CE-lipoprotein (20 μg of protein/ml) was measured at 37° C. for 4 h in 12-well plates. […] Nonspecific association was assessed by the addition of 1.5 mg of protein/ml of unlabeled lipoproteins. […] Radioactivity counts in the homogenates were obtained with a beta-counter. […] The specific association was calculated by subtracting the nonspecific association from the total association.

In the case of `CC(C)c1c(C(=O)Nc2ccccc2)c(-c2ccccc2)c(-c2ccc(F)cc2)n1CC[C@@H](O)C[C@@H](O)CC(=O)O` [atorvastatin, reference compound], the “3H-CE-LDL association (LDL cholesterol uptake by LDLr), co-treatment” value is reported as “additive effects”.
